Reference: article PMC4472782, “Antibacterial Characterization of Novel Synthetic Thiazole Compounds against Methicillin-Resistant Staphylococcus pseudintermedius” (PLoS ONE, 2015)
Counter-ions that a name gives are not always drawn.

Test system: murine macrophage cell line (J774.A1)
Assay: In vitro cytotoxicity analysis (MTS assay)
Format: cell-based
Details: 10 μg/mL, J774.A1, two hours
Description: Compounds were assayed at concentrations of 5 μg/mL, 10 μg/mL, 20 μg/mL, and 40 μg/mL against a murine macrophage cell line (J774.A1) (ATCC TIB-67, American Type Culture Collection (ATCC), Manassas, VA, USA) to determine the potential toxic effect in vitro. Cells were cultured in Dulbeco’s modified Eagle’s medium (Sigma-Aldrich, St. Louis, MO, USA) with 10% fetal bovine serum (USA Scientific, Inc.) at 37°C with 5% CO2. Controls received DMSO alone at a concentration equal to that in drug-treated cell samples. The cells were incubated with the compounds in a 96-well plate at 37°C and 5.0% CO2 for two hours prior to addition of the assay reagent MTS 3-(4,5-dimethylthiazol-2-yl)-5-(3-carboxymethoxyphenyl)-2-(4-sulfophenyl)-2H-tetrazolium) (Promega, Madison, WI, USA). Absorbance readings were taken using a kinetic ELISA microplate reader (Molecular Devices, Sunnyvale, CA, USA). The quantity of viable cells after treatment with each compound was expressed as a percentage of the control, DMSO.
All statistical analyses were performed with GraphPad Prism 6.0 (GraphPad Software, La Jolla, CA). Data generated from cytotoxicity analysis of the thiazole compounds against J774.A1 cells and the 260 and 280 nm cell leakage analysis were analyzed using one-way ANOVA, with post hoc Tukey's multiple comparisons test (P < 0.05).

For CCC[C@@H]1C[C@@H](C(=O)N[C@@H]([C@H]2O[C@H](SC)[C@H](O)[C@@H](O)[C@H]2O)[C@H](C)Cl)N(C)C1 [Clindamycin, Clindamycin hydrochloride monohydrate, reference compound], the “toxicity to murine macrophage cells (MTS assay)” value was “not toxic”.
